Results are given in words; binding and its absence hold for the method and conditions named. Binding seen in cells or lysates may run through a third protein. Some binding calls cover weakened binding; strength is not graded here. For some of these results: Where a sequence is shown, tags or fusion partners need not be part of it.

Amino acid sequences for entries named in this document (tags omitted).
UniProt O95785: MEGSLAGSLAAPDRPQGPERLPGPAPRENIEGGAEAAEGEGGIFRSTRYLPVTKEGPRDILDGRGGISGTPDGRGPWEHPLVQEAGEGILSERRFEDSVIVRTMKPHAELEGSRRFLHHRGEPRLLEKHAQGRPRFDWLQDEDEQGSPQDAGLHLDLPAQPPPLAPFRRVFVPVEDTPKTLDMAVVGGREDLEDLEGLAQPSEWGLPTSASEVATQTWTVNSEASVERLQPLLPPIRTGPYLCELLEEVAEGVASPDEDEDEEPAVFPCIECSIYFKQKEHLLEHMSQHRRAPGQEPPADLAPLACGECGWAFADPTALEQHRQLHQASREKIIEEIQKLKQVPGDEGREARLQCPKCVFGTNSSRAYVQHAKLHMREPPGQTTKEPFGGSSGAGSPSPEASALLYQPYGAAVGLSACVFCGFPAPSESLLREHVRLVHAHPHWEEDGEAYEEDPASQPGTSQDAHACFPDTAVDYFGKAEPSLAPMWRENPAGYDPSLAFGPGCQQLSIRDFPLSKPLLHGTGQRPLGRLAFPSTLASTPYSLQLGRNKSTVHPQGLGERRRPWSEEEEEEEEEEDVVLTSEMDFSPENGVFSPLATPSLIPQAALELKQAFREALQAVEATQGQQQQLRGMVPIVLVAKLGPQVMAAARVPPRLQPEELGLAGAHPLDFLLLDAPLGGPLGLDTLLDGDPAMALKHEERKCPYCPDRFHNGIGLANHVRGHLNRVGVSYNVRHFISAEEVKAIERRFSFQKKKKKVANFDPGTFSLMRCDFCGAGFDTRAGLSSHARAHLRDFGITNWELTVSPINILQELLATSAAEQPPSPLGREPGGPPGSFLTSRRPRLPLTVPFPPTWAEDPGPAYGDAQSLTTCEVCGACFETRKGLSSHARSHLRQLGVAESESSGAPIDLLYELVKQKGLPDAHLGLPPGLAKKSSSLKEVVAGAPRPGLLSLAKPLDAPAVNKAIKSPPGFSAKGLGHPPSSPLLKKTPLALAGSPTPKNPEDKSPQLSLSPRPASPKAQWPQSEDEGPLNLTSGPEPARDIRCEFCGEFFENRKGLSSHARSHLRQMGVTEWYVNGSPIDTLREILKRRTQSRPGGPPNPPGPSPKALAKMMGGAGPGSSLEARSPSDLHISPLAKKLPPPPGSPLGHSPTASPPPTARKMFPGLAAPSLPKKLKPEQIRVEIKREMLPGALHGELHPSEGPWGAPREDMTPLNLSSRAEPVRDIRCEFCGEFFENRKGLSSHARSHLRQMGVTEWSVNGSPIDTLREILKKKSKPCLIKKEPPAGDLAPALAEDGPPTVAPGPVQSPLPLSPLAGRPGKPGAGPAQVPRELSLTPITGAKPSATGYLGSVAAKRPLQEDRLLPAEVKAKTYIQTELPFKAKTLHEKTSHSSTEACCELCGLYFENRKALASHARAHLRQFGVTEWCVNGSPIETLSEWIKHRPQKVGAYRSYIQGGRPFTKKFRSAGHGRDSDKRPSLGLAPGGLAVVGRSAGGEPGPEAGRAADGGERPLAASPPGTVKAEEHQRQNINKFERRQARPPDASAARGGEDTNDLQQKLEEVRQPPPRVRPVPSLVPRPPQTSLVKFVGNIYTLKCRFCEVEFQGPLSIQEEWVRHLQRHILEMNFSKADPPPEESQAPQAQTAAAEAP

The target in experiment [1] is GLP (endogenous) (human (endogenous in 293T and U2OS)) (UniProt Q9H9B1). The experiment in a line: co-IP; endogenous proteins of U2OS lysates; lysis in NETN400, diluted to 100 mM NaCl; IP and Western blotting with the antibodies indicated, irrelevant IgG as control; also after knock-down of G9a or GLP by siRNA.
Experiment [2] concerns the target SFB-tagged WIZ (wild type) (human) (UniProt O95785). The experiment in a line: pull-down; SFB-tagged protein and its partner expressed in 293T cells; lysates on streptavidin beads, Western blotting. In general terms: A western blot detects proteins with antibodies after separation by electrophoresis.
Experiment [3] deals with SFB-tagged GLP (wild type) (UniProt Q9H9B1). The experiment is described as above.
Experiment [4] has as its target T1, G9a (endogenous) (human (endogenous in 293T and U2OS)), Q96KQ7.
T1 chain: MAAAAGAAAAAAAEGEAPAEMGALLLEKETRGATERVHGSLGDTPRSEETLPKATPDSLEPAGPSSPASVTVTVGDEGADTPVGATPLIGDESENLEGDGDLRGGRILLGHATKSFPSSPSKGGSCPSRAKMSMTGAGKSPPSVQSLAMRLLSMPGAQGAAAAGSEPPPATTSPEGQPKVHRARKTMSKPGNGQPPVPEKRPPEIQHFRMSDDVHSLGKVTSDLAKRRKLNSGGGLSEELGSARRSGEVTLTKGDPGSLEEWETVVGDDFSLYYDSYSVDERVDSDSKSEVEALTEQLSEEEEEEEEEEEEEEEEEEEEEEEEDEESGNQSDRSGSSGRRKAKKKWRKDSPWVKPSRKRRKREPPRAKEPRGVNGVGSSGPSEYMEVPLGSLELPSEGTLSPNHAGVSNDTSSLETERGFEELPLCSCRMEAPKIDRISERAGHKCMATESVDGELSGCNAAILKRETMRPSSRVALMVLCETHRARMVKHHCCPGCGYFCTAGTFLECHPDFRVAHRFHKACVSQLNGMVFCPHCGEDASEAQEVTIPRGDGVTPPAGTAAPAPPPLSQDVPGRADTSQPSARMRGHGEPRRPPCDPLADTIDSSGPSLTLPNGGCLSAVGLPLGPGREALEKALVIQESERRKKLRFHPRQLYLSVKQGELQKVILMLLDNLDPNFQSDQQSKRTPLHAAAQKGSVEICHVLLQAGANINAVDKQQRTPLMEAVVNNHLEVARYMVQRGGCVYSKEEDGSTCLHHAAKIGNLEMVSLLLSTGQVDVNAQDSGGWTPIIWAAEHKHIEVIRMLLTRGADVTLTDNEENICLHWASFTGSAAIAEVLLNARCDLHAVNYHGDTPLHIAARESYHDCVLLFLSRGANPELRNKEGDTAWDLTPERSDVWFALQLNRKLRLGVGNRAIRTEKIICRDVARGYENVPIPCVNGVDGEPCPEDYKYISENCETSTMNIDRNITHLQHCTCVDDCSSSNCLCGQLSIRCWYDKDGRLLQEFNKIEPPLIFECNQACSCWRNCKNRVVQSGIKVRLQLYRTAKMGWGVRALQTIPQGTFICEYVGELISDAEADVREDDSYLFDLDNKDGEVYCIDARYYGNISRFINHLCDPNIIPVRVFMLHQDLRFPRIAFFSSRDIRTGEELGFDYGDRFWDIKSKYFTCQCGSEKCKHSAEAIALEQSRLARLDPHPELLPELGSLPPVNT
Kind of experiment: co-IP; endogenous proteins of U2OS lysates; lysis in NETN400, diluted to 100 mM NaCl; IP and Western blotting with the antibodies indicated, irrelevant IgG as control; also after knock-down of G9a or GLP by siRNA. Particulars: remark: other sources report otherwise.

For experiment [5], the target named is SFB-tagged G9a (wild type) (UniProt Q96KQ7). The experiment in a line: pull-down; SFB-tagged protein and its partner expressed in 293T cells; lysates on streptavidin beads, Western blotting.
For experiment [6] the target is unchanged. Kind of experiment: co-IP; Myc-tagged ZNF644 or deletion mutants co-expressed with SFB-G9a in 293T cells; IP and Western blotting with indicated antibodies.
The target of experiment [7] is G9a (endogenous) (human (endogenous in 293T and U2OS)) (UniProt Q96KQ7). The experiment in a line: co-IP; endogenous proteins of U2OS lysates; lysis in NETN400, diluted to 100 mM NaCl; IP and Western blotting with the antibodies indicated, irrelevant IgG as control; also after knock-down of G9a or GLP by siRNA.

Consider “WIZ (endogenous) (from UniProt O95785 1-1651)”, for which the binding entry in experiment [1] is “binds”.

In the case of “Myc-tagged GLP (from UniProt Q9H9B1 1-1298) (enzyme)”, the binding entry in experiment [2] is listed as “binds”.

Take “WIZ (partner of SFB-G9a and SFB-GLP in Figure 2C and 2E) (from UniProt O95785 1-1651)”: the binding result in experiment [3] is listed as “binds”.

B1: GLP (endogenous), Q9H9B1 1-1298 (enzyme)
chain: MAAADAEAVPARGEPQQDCCVKTELLGEETPMAADEGSAEKQAGEAHMAADGETNGSCENSDASSHANAAKHTQDSARVNPQDGTNTLTRIAENGVSERDSEAAKQNHVTADDFVQTSVIGSNGYILNKPALQAQPLRTTSTLASSLPGHAAKTLPGGAGKGRTPSAFPQTPAAPPATLGEGSADTEDRKLPAPGADVKVHRARKTMPKSVVGLHAASKDPREVREARDHKEPKEEINKNISDFGRQQLLPPFPSLHQSLPQNQCYMATTKSQTACLPFVLAAAVSRKKKRRMGTYSLVPKKKTKVLKQRTVIEMFKSITHSTVGSKGEKDLGASSLHVNGESLEMDSDEDDSEELEEDDGHGAEQAAAFPTEDSRTSKESMSEADRAQKMDGESEEEQESVDTGEEEEGGDESDLSSESSIKKKFLKRKGKTDSPWIKPARKRRRRSRKKPSGALGSESYKSSAGSAEQTAPGDSTGYMEVSLDSLDLRVKGILSSQAEGLANGPDVLETDGLQEVPLCSCRMETPKSREITTLANNQCMATESVDHELGRCTNSVVKYELMRPSNKAPLLVLCEDHRGRMVKHQCCPGCGYFCTAGNFMECQPESSISHRFHKDCASRVNNASYCPHCGEESSKAKEVTIAKADTTSTVTPVPGQEKGSALEGRADTTTGSAAGPPLSEDDKLQGAASHVPEGFDPTGPAGLGRPTPGLSQGPGKETLESALIALDSEKPKKLRFHPKQLYFSARQGELQKVLLMLVDGIDPNFKMEHQNKRSPLHAAAEAGHVDICHMLVQAGANIDTCSEDQRTPLMEAAENNHLEAVKYLIKAGALVDPKDAEGSTCLHLAAKKGHYEVVQYLLSNGQMDVNCQDDGGWTPMIWATEYKHVDLVKLLLSKGSDINIRDNEENICLHWAAFSGCVDIAEILLAAKCDLHAVNIHGDSPLHIAARENRYDCVVLFLSRDSDVTLKNKEGETPLQCASLNSQVWSALQMSKALQDSAPDRPSPVERIVSRDIARGYERIPIPCVNAVDSEPCPSNYKYVSQNCVTSPMNIDRNITHLQYCVCIDDCSSSNCMCGQLSMRCWYDKDGRLLPEFNMAEPPLIFECNHACSCWRNCRNRVVQNGLRARLQLYRTRDMGWGVRSLQDIPPGTFVCEYVGELISDSEADVREEDSYLFDLDNKDGEVYCIDARFYGNVSRFINHHCEPNLVPVRVFMAHQDLRFPRIAFFSTRLIEAGEQLGFDYGERFWDIKGKLFSCRCGSPKCRHSSAALAQRQASAAQEAQEDGLPDTSSAAAADPL
Consider B1, for which, in experiment [4], the binding result is “binds”.

B2: Myc-tagged ZNF644 (wild type) (protein, UniProt Q9H582 1-1327)
chain: MRSFLQQDVNKTKSRLNVLNGLANNMDDLKINTDITGAKEELLDDNNFISDKESGVHKPKDCQTSFQKNNTLTLPEELSKDKSENALSGGQSSLFIHAGAPTVSSENFILPKGAAVNGPVSHSSLTKTSNMNKGSVSLTTGQPVDQPTTESCSTLKVAADLQLSTPQKASQHQVLFLLSDVAHAKNPTHSNKKLPTSASVGCDIQNSVGSNIKSDGTLINQVEVGEDGEDLLVKDDCVNTVTGISSGTDGFRSENDTNWDPQKEFIQFLMTNEETVDKAPPHSKIGLEKKRKRKMDVSKITRYTEDCFSDSNCVPNKSKMQEVDFLEQNEELQAVDSQKYALSKVKPESTDEDLESVDAFQHLIYNPDKCGEESSPVHTSTFLSNTLKKKCEESDSESPATFSTEEPSFYPCTKCNVNFREKKHLHRHMMYHLDGNSHFRHLNVPRPYACRECGRTFRDRNSLLKHMIIHQERRQKLMEEIRELKELQDEGRSARLQCPQCVFGTNCPKTFVQHAKTHEKDKRYYCCEECNFMAVTENELECHRGIAHGAVVKCPMVTSDIAQRKTQKKTFMKDSVVGSSKKSATYICKMCPFTTSAKSVLKKHTEYLHSSSCVDSFGSPLGLDKRKNDILEEPVDSDSTKTLTKQQSTTFPKNSALKQDVKRTFGSTSQSSSFSKIHKRPHRIQKARKSIAQSGVNMCNQNSSPHKNVTIKSSVDQKPKYFHQAAKEKSNAKANSHYLYRHKYENYRMIKKSGESYPVHFKKEEASSLNSLHLFSSSSNSHNNFISDPHKPDAKRPESFKDHRRVAVKRVIKESKKESSVGGEDLDSYPDFLHKMTVVVLQKLNSAEKKDSYETEDESSWDNVELGDYTTQAIEDETYSDINQEHVNLFPLFKSKVEGQEPGENATLSYDQNDGFYFEYYEDTGSNNFLHEIHDPQHLETADASLSKHSSVFHWTDLSLEKKSCPYCPATFETGVGLSNHVRGHLHRAGLSYEARHVVSPEQIATSDKMQHFKRTGTGTPVKRVRKAIEKSETTSEHTCQLCGGWFDTKIGLSNHVRGHLKRLGKTKWDAHKSPICVLNEMMQNEEKYEKILKALNSRRIIPRPFVAQKLASSDDFISQNVIPLEAYRNGLKTEALSVSASEEEGLNFLNEYDETKPELPSGKKNQSLTLIELLKNKRMGEERNSAISPQKIHNQTARKRFVQKCVLPLNEDSPLMYQPQKMDLTMHSALDCKQKKSRSRSGSKKKMLTLPHGADEVYILRCRFCGLVFRGPLSVQEDWIKHLQRHIVNANLPRTGAGMVEVTSLLKKPASITETSFSLLMAEAAS
For the molecule B2, the binding entry in experiment [5] and in experiment [6] was “binds” throughout.

B3: ZNF644 (endogenous) (protein, UniProt Q9H582 1-1327)
chain: B2 chain
With B3, the binding result in experiment [7] is “binds”.

Values taken from article PMC4365668, “The zinc finger proteins ZNF644 and WIZ regulate the G9a/GLP complex for gene repression”.
